Experimental data as given in publication PMC7249644.
Results are given in words; binding and its absence hold for the method and conditions named. Binding seen in cells or lysates may run through a third protein. Binding can be weak; no strength is given. Sequences can lack the tags named with a protein. Blank lines part the entries; values can stand above or below the molecule they belong to.

What was measured:
[1] = target: T1, OsSHMT fused with a YFP fragment for BiFC (rice (Oryza sativa subsp. indica, Dular)) (UniProt Q10D68); assay: split reporter; BiFC: YFPn and YFPc fusions co-expressed by transient transformation in leaves of Nicotiana benthamiana; YFP fluorescence by laser confocal microscopy, 488-nm excitation
T1 sequence: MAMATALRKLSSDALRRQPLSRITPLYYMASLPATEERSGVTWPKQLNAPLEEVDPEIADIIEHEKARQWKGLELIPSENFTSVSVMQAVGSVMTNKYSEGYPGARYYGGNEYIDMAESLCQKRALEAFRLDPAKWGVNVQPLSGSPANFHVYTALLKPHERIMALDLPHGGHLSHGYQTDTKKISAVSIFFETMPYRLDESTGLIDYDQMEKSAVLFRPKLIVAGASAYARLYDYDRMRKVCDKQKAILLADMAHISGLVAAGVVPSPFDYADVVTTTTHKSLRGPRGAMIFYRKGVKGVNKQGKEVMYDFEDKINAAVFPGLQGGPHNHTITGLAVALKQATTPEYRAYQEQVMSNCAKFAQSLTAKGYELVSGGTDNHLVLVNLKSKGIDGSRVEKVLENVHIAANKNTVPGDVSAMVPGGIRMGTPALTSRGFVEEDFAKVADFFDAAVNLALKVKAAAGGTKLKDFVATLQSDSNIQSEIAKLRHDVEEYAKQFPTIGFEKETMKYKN

[2] = target: ATP synthase subunit β from rice, fused with a YFP fragment for BiFC (rice (Oryza sativa subsp. indica, Dular)); assay: as above

Molecule: ATP synthase subunit β from rice, fused with a YFP fragment for BiFC
binding [1]: binds

B1: OsNIP2;1 (Lsi1-encoded nodulin 26-like intrinsic protein) fused with the N-terminal domain of YFP (protein, UniProt Q6Z2T3 1-298)
chain: MASNNSRTNSRANYSNEIHDLSTVQNGTMPTMYYGEKAIADFFPPHLLKKVVSEVVATFLLVFMTCGAAGISGSDLSRISQLGQSIAGGLIVTVMIYAVGHISGAHMNPAVTLAFAVFRHFPWIQVPFYWAAQFTGAICASFVLKAVIHPVDVIGTTTPVGPHWHSLVVEVIVTFNMMFVTLAVATDTRAVGELAGLAVGSAVCITSIFAGAISGGSMNPARTLGPALASNKFDGLWIYFLGPVMGTLSGAWTYTFIRFEDTPKEGSSQKLSSFKLRRLRSQQSIAADDVDEMENIQV
binding [2]: binds

Now from value to molecule:

binding [1]: binds
Molecule: ATP synthase subunit α from rice, fused with a YFP fragment for BiFC

binding [1]: binds
Molecule: ascorbate peroxidase (APX) from rice, fused with a YFP fragment for BiFC (enzyme)
